Measured values published in PubChem BioAssay AID485353 (National Center for Advancing Translational Sciences (NCATS), 2010).
Hit rate of the full screen: of about 330,000 compounds, about 610 (0.18%) were called active. The inconclusive results got no clear call from the source; some entries with a clear call stand among them for comparison. Calls follow the shape of the full dose curve. Potencies of inconclusive entries are doubtful fits and often do not repeat.

Experiment: qHTS of Yeast-based Assay for SARS-CoV PLP; also: nearly all actives have a fitted effect of over 55% in size
Settings: S. cerevisiae expressing SARS-CoV PLpro; Potency: growth rescue; series mostly up to 32.9 µM
Potency is read from the fitted curve at half-maximal effect.

Structure (SMILES)	Potency
CNC(=O)CN1C(=O)NC2(CCc3ccccc32)C1=O (stereo not drawn)	inconclusive: 2.51 µM [activator, partial curve]
Cc1ccc(C(=O)Nc2cccc(C(=O)N/N=C/c3ccc(O)cc3)c2)cc1	inactive
CCN(CC)CCN(C(=O)c1ccc2ccccc2c1)c1nc2cc3c(cc2s1)OCO3	inconclusive: 3.98 µM [activator, single point]
Cc1cn2c(-c3ccncc3)nnc2s1	inconclusive: 20 µM [activator, single point]
O=C(CSc1nnc(NC(=O)C2CCC2)s1)NC1CC1	inconclusive: 3.98 µM [activator, single point]
Cc1ccccc1NS(=O)(=O)c1ccc(NC(=O)c2ccco2)cc1	inconclusive: 4.47 µM [activator, single point]
COc1ccc(NC(=O)c2cccs2)cc1	inactive
C/C(=N\NC(=O)c1ccc2ccccc2c1)c1cccs1	inactive
CCc1nonc1NC(=O)c1oc2cc(C)c(C)cc2c1C	inconclusive: 0.398 µM [activator, full curve, poor fit]
CC1CN(C(=O)c2cccc(S(=O)(=O)N3CCN(c4ccc(F)cc4)CC3)c2)CC(C)O1 (stereo not drawn)	inconclusive: 0.282 µM [activator, full curve, poor fit]
CS(=O)(=O)N(CC(=O)N1CCc2ccccc2C1)c1ccccc1Br	inconclusive: 3.98 µM [activator, single point]
Cc1cc(C(=O)OCC(=O)N2CC(=O)Nc3ccccc32)c(C)n1-c1ccc(F)cc1	active: 3.98 µM
CC(=O)c1cccc(NC(=S)Nc2cccc3ccccc23)c1	inconclusive: 3.98 µM [activator, single point]
CCOc1ccc(C2CC(c3ccc(OC)c(OC)c3)n3nc(N)nc3N2)cc1 (stereo not drawn)	inconclusive: 4.47 µM [activator, single point]
Cc1ccc(-c2nnc(Nc3ccc(CC(N)=O)cc3)c3ccccc23)cc1	inactive
Cc1ccccc1N1CCN(C2CCCN(C(=O)CCC(F)(F)F)C2)CC1 (stereo not drawn)	inconclusive: 1.26 µM [activator, partial curve, poor fit]
CCCN1CCN(C(=O)c2noc3c2COc2ccc(C)cc2-3)CC1	inconclusive: 20 µM [activator, single point]
CCOc1ccc2[nH]c3c(NCCC(C)C)ncnc3c2c1	inactive
O=C(CCc1ccc(Oc2cc([N+](=O)[O-])cc([N+](=O)[O-])c2)cc1)NC1CCCC1	inconclusive: 0.282 µM [activator, partial curve, poor fit]
COc1ccc(-c2csc(NC(=O)CCn3cnc4ccccc4c3=O)n2)cc1OC	inconclusive: 2.82 µM [activator, single point]
COc1ccc(CC(NC(C)=O)C(=O)NC2CCN(c3c(Cc4ccccc4)c(C)nc4ncnn34)CC2)cc1OC (stereo not drawn)	inconclusive: 1.41 µM [activator, partial curve, poor fit]
Cc1cc(C(=O)CCl)c(C)n1-c1cccc([N+](=O)[O-])c1	inconclusive: 2.82 µM [activator, single point]

Looked up above:
Entry for `CC1CN(C(=O)c2cccc(S(=O)(=O)N3CCN(c4ccc(F)cc4)CC3)c2)CC(C)O1` (stereo not drawn) under Potency: inconclusive: 0.282 µM [activator, full curve, poor fit]
Entry for `Cc1ccc(C(=O)Nc2cccc(C(=O)N/N=C/c3ccc(O)cc3)c2)cc1` under Potency: inactive

Further results follow:

Structure (SMILES)	Potency
O=C(NCCc1ccc(Cl)cc1)C1CCN(C(=O)N2CCOc3ccccc32)CC1	inconclusive: 17.8 µM [activator, single point]
O=C(CSCc1ccc(Cl)cc1)NCc1ccccn1	inconclusive: 3.16 µM [activator, single point]
CCC(OC(=O)c1cccs1)C(=O)NCc1ccco1 (stereo not drawn)	inconclusive: 4.47 µM [activator, single point]
Clc1ccc(CN2CCN(c3ncnc4scc(-c5cccs5)c34)CC2)cc1	inconclusive: 20 µM [activator, single point]
COC(=O)Cc1ccc(NC(=S)Nc2cccc(C)n2)cc1	inactive
C/C(=N\NC(=O)C(C)n1nc(C)c([N+](=O)[O-])c1C)c1ccccc1O (stereo not drawn)	inconclusive: 20 µM [activator, single point]
Cn1c2ccccc2c2cnn(CC(=O)N3CCC4(CC3)OCCO4)c(=O)c21	inconclusive: 5.01 µM [activator, partial curve]
O=C1/C(=C/c2ccccc2)C[C@@]2(O)[C@H]3Cc4ccc(O)c5c4[C@@]2(CCN3CC2CC2)C1O5 (stereo partly drawn)	inactive
CC(=O)NC(c1ccc(C)cc1)c1cc(Cl)c2cccnc2c1O (stereo not drawn)	inconclusive: 20 µM [activator, single point]
Cc1ccc(OCc2cc(C(=O)N3CCCC(O)C3)no2)cn1 (stereo not drawn)	inconclusive: 11.2 µM [activator, single point]
O=C(NC1CCCN(Cc2ccc(Cl)cc2)C1)c1cccc(F)c1 (stereo not drawn)	inconclusive: 3.16 µM [activator, single point]
CCOC(=O)c1[nH]c2ccc(Cl)cc2c1NC(=O)c1nonc1C	inconclusive: 17.8 µM [activator, single point]
O=[N+]([O-])c1ccc2nc(NS(=O)(=O)c3ccc(F)cc3)sc2c1	inactive
Cc1ccccc1SCC(=O)NNC(=O)c1ccccc1O	inconclusive: 20 µM [activator, single point]
CC(C)(C)OC(=O)C[C@H]1C/C=C\C[C@@H](CC(=O)N[C@@H](CO)Cc2ccccc2)C(=O)NC[C@@H](c2ccccc2)OC1=O	inconclusive: 22.4 µM [activator, single point]
CNC(=O)c1nc(C)n(-c2ccc(Cl)cc2Cl)n1	inactive
CCc1nc2cc(Cl)c(Cl)cc2nc1CC	inactive
CCN(CC)N=Nc1ccc(S(=O)(=O)Nc2c(C)n(C)n(-c3ccccc3)c2=O)cc1	inconclusive: 17.8 µM [activator, single point]
COc1ccc(C(=O)N2CCN(S(=O)(=O)c3ccc(Cl)cc3)CC2)cc1OC	inconclusive: 3.98 µM [activator, single point]
CC(C)OCCCNc1ccc(N2C(=O)CCCC2=O)cc1[N+](=O)[O-]	inactive
O=C(CCN1C(=O)/C(=C/c2cccs2)SC1=S)Nc1ccc(C(=O)O)c(O)c1	inconclusive: 20 µM [activator, single point]
